# Test results as given in the supplement of paper PMC12889115.
# This is one part of the list. Values are raw readings; no control value is given beside them.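 First-pass screen: polymyxin B was added at a level that permeabilizes the Salmonella outer membrane while sparing the inner membrane. DMSO wells, with and without polymyxin B, defined maximum growth. Because plates differed from one another, each plate's data were ranked separately and the compounds with the lowest OD600 were carried forward as hits.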
# Tested on: Salmonella enterica serovar Typhimurium SL1344
# Assay: bacterial growth OD600 after 18 h with compound and polymyxin B; higher = more bacterial growth (less inhibition)
# Settings: 50 µM, Mueller-Hinton broth
Structure (SMILES),bacterial growth OD600 (polymyxin B 1 µg/mL),bacterial growth OD600 (polymyxin B 0.75 µg/mL)
C=CCC(=O)NC(C)c1cnc(N2CCCCCCC2)nc1C (stereo unspecified),1.1,–
Cn1cc(CN2CCCC(C(=O)N3CCOCC3)C2)c(-c2ccc3c(c2)OCCO3)n1 (stereo unspecified),0.847,–
Cc1cc(C)n(-c2cccc(CNC3COc4ccccc4C3)c2)n1 (stereo unspecified),1.18,–
COc1ccc(C(=O)N2CCCC2)c(OC2CCN(Cc3ccccc3)CC2)c1,0.892,–
COCC(=O)Nc1cc(C(=O)N(C)Cc2cn(C)nc2C)c2c(c1)ncn2Cc1ccc(F)cc1,–,0.909
CO[C@H]1[C@H](NC(=O)COc2ccccc2)c2ccccc2C12CCN(C(=O)c1c(C)noc1C)CC2,–,0.9
CC1CCCN(C(=O)CC2(c3ccc(-c4ccccc4)cc3)CC(=O)N(C3CC3)C2=O)C1 (stereo unspecified),–,0.004
CCN(CC1CCCN(CCc2cccc(F)c2)C1)C(=O)CCN1CCOCC1 (stereo unspecified),–,0.8
Cc1noc(C)c1C(=O)N1CCCC(N2CCN(Cc3ccc4c(c3)OCO4)CC2)C1 (stereo unspecified),0.944,–
CCn1ccnc1CN(C)C(=O)c1coc(COc2ccccc2)n1,–,0.824
COc1cc(C(=O)NCc2ccc(Cl)cc2)ccc1OC1CCN(C(C)=O)CC1,0.934,–
COCCn1c(-c2ccccn2)nc2cc(NC(C)=O)cc(C(=O)N(C)Cc3ccc(F)cc3)c21,–,0.95
CC(=O)N1CCC(C(=O)N2CCCC(CCc3c(F)cccc3F)C2)CC1 (stereo unspecified),–,0.005
COc1ccc(-c2nn(-c3ccccc3)cc2CN(C)C2CCOCC2)c(F)c1,0.68,–
COc1ccc2c(c1)OC(C)CN(CCC(=O)NCc1cc(F)ccc1C)C2 (stereo unspecified),–,0.815
O=C1CCCN1CCCC(=O)N1CCCC(CCc2cccc(F)c2)C1 (stereo unspecified),–,0.932

# Reprinted at random: two compounds from above, in no set order.
Structure (SMILES),bacterial growth OD600 (polymyxin B 1 µg/mL),bacterial growth OD600 (polymyxin B 0.75 µg/mL)
COc1ccc(-c2nn(-c3ccccc3)cc2CN(C)C2CCOCC2)c(F)c1,0.68,–
Cc1cc(C)n(-c2cccc(CNC3COc4ccccc4C3)c2)n1 (stereo unspecified),1.18,–

# Further compounds:

Structure (SMILES),bacterial growth OD600 (polymyxin B 1 µg/mL),bacterial growth OD600 (polymyxin B 0.75 µg/mL)
CC(C)CNC(=O)c1cn(C(C)C)cc(C(=O)N2CCN(c3cccc(C(F)(F)F)c3)CC2)c1=O,–,0.768
CCCCNC(=O)C1CCCN(C2CCN(C(=O)C3CC3)CC2)C1 (stereo unspecified),–,0.802
O=C(CSc1ccccc1)N1CCCC(Nc2ccc(F)cc2)C1 (stereo unspecified),0.787,–
CCOc1ccc2nc(N3CCCC(C(=O)NCCOc4cccnc4)C3)nc(C)c2c1 (stereo unspecified),–,0.005
CN(Cc1c[nH]nc1-c1cc2ccccc2o1)CC1COc2ccccc2O1 (stereo unspecified),0.014,–
O=C(Nc1ccnn1C1CCN(CC2CC=CCC2)CC1)c1ccc2c(c1)OCO2 (stereo unspecified),0.93,–
COc1ccccc1-n1cc(CN2CCCC(CO)(Cc3ccccc3)C2)cn1 (stereo unspecified),0.877,–
Cc1ccc(CN(C)C(=O)c2cn(Cc3ccccc3F)nn2)cc1,0.573,–
COc1ccc(CC2(CCC(=O)N3CCN(c4ccc(Cl)cc4)CC3)CCC(=O)N2)c(F)c1 (stereo unspecified),–,0.728
COC(=O)C(CCSC)NC(=O)c1csc2nc(-c3ccccc3)cn12 (stereo unspecified),0.788,–
COc1ccc(C(=O)C2CCCN(Cc3cccc4c3OCO4)C2)c(OC)c1 (stereo unspecified),0.773,–
COCCN1C(=O)CC(CC(=O)N(C)Cc2ccc(-n3cccn3)cc2)(c2ccccc2OC)C1=O (stereo unspecified),–,0.846
CC(Cc1cnccn1)NC(=O)c1cc(Cn2ccc3ccccc32)[nH]n1 (stereo unspecified),–,0.828
O=C1N(Cc2cccc(F)c2F)CCCC1(O)CN1CCC2(CC1)OCCO2 (stereo unspecified),0.902,–
Cc1nc(-c2ccncc2)ncc1C(C)NC(=O)c1ccccc1Cl (stereo unspecified),0.904,–
